Measured values reported in paper PMC5484620.
Results are given in words; binding and its absence hold for the method and conditions named. Binding seen in cells or lysates may run through a third protein. Some entries that bind do so weakly or less than the wild type.

The chains behind the UniProt entries cited, without tags or fusion partners.
UniProt Q04637: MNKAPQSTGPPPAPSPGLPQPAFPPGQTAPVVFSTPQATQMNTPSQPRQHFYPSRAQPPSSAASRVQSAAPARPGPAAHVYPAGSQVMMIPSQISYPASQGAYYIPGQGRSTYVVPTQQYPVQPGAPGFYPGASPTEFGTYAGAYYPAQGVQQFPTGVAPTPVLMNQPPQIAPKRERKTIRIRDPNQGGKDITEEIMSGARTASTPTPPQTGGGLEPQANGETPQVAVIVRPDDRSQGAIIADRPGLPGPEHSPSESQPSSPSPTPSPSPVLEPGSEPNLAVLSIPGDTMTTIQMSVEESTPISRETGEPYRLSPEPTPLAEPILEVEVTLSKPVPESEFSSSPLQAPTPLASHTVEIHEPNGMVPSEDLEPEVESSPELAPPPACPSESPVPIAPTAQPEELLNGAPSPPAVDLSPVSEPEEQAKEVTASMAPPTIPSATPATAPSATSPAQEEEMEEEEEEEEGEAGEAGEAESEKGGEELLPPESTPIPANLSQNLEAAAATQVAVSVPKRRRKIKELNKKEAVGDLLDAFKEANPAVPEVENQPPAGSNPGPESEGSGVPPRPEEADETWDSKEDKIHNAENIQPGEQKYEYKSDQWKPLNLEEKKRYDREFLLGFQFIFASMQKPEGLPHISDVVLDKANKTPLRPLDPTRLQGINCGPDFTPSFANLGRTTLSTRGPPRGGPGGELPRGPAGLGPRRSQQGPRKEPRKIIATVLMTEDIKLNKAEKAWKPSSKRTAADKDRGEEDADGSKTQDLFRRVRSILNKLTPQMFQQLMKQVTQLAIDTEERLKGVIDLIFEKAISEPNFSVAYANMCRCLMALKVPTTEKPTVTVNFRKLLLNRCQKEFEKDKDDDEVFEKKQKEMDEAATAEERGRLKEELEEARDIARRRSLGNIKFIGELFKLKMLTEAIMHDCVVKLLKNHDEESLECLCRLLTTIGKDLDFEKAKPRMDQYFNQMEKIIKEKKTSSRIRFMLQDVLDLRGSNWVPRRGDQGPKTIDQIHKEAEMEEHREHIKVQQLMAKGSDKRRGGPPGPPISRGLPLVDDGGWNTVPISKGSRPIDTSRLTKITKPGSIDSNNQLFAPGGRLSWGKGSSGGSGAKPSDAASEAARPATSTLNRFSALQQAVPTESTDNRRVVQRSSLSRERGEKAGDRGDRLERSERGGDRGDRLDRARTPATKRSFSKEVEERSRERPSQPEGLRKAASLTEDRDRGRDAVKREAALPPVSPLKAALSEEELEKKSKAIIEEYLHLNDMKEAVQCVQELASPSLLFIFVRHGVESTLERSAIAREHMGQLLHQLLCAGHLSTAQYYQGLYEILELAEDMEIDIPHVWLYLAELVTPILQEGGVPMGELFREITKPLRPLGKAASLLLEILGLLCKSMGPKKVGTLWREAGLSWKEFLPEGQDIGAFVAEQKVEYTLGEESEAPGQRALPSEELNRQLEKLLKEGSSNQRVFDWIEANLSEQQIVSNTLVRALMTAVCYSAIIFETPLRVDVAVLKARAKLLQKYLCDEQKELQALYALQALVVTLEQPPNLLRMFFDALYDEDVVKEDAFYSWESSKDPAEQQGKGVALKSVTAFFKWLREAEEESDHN
UniProt P55884: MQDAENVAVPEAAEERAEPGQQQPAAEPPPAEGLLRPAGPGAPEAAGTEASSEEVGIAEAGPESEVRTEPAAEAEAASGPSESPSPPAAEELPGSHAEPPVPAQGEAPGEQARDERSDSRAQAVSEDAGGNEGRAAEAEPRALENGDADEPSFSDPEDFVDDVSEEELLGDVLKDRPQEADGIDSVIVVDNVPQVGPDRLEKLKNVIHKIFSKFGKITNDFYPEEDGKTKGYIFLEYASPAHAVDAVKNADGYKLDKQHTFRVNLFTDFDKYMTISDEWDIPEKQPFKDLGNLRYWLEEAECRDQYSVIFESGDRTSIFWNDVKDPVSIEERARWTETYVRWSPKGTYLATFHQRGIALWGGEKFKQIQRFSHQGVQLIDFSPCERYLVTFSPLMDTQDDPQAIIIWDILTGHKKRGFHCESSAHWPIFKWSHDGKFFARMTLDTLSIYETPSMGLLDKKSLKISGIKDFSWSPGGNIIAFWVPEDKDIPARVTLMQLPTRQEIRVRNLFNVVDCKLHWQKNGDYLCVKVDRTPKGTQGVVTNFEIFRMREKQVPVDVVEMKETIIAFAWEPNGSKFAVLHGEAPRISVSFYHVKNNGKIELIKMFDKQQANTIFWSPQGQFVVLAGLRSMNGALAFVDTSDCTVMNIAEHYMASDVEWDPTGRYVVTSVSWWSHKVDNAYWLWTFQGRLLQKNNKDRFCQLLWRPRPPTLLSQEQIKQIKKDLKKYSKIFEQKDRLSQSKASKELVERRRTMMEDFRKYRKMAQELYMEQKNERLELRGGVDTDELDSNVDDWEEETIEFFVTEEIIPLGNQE

Biological target: eIF4G1, endogenous (human (endogenous in HEK293T)) (UniProt Q04637)
Experiment: co-IP; endogenous eIF4G1 precipitated from lysates with or without RNase A

With “eIF3B, endogenous (from UniProt P55884 1-814)” the binding was “binds”.
